PubChem BioAssay (NCATS)
All entries are inconclusive by the source's own rule. Clear calls are listed elsewhere. Unless noted, calls follow the shape of the dose curve; as a rule, active = well fitted curve in the direction sought with a large enough effect; inconclusive = small, poorly fitted or top-dose-only effect, or another doubt; inactive = no such curve, though single readings can be large; an effect the other way counts as inactive or inconclusive.

Protein sequences, listed by entry. Tags and fused reporters are not part of them.
UniProt P10828, whole entry: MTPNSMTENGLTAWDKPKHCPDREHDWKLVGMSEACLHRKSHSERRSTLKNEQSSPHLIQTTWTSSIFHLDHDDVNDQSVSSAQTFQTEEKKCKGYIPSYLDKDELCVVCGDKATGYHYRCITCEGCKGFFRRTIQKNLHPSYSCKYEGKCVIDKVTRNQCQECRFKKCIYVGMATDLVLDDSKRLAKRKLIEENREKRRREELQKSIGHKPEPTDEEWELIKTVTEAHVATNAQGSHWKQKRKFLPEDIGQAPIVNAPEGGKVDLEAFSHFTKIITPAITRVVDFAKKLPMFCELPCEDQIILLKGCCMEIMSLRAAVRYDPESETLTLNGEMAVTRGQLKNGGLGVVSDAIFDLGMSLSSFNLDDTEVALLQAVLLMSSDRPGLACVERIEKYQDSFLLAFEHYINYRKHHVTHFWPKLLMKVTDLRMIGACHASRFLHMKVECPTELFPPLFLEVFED
UniProt P08482, whole entry: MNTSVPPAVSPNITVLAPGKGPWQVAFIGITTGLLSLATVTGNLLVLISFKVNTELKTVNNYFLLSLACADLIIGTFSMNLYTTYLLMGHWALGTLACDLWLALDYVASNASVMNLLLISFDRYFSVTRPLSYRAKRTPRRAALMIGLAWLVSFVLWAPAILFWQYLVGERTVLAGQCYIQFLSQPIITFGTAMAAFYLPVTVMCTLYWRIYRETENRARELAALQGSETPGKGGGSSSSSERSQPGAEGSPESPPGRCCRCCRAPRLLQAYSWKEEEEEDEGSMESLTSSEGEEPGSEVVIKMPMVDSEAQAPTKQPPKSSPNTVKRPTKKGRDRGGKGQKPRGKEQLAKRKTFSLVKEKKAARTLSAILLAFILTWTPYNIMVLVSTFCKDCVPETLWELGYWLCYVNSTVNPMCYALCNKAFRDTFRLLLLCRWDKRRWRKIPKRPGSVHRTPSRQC
UniProt P11712, whole entry: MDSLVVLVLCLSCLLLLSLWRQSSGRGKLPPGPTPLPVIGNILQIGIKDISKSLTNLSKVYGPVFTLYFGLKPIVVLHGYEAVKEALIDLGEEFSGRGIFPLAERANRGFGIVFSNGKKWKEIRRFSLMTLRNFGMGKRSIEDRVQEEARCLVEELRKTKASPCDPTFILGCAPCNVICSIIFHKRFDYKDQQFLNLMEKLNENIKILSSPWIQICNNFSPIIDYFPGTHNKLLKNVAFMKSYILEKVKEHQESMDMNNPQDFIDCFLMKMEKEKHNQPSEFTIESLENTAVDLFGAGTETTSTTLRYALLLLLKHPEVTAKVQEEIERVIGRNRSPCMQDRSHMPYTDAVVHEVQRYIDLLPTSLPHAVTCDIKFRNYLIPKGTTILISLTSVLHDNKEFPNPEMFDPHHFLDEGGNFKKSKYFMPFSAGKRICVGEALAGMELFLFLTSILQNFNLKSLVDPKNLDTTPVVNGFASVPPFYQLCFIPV

Tests used:
[1] = qHTS of pediatric cancer cell lines to identify multiple opportunities for drug repurposing: Primary screen for LAN-5 cells (AID 1347100); conditions: LAN-5 neuroblastoma viability, CellTiter-Glo luminescence, 48 h
Method in brief: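 Viability after 48 h compound treatment at 37C, 500-1,000 cells/well, read as ATP luminescence with CellTiter-Glo. Primary screens used 11-point (MIPE, 0.78 nM-46 µM) or 8-point (NPC, 0.59 nM-46 µM) final concentrations; follow-up screens used 11-point dilutions.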

[2] = Primary qHTS for inhibitors of nuclear receptor binding SET domain protein 2 (NSD2) in an isogenic RCH-ACV NSD2 p.E1099K mutant (9B) (AID 1645876); conditions: RCH-ACV NSD2 E1099K (9B) viability, CellTiter-Glo, 72 h; also: nearly all actives have a fitted effect of over 70% in size
[3] = Primary qHTS for inhibitors of nuclear receptor binding SET domain protein 2 (NSD2) in an RCH-ACV wild type WT cells (2C) (AID 1645877); conditions: RCH-ACV (leukaemia line) NSD2 WT (2C) viability, CellTiter-Glo, 72 h; also: nearly all actives have a fitted effect of over 70% in size
From the text: Assay Provider: Jonathan D. Licht, MD
University of Florida College of Medicine, Gainesville, FL
Mutations in epigenetic regulators are common in relapsed pediatric acute lymphoblastic leukemia (ALL). Here, we uncovered the mechanism underlying the relapse of ALL driven by an activating mutation of the NSD2 histone methyltransferase (p.E1099K). […] Correction of this mutation restored glucocorticoid sensitivity. The transcriptional response to glucocorticoids was blocked in NSD2 mutant cells due to depressed glucocorticoid receptor (GR) levels and the failure of glucocorticoids to autoactivate GR expression. […] Pre-treatment of NSD2 p.E1099K cell lines and PDX samples with PRC2 inhibitors reversed glucocorticoid resistance in vitro and in vivo.
High-throughput drug screening of isogenic RCH-ACV cell lines was performed at the National Center for Advancing Translational Science (NCATS), National Institutes of Health as previously described (1). Briefly, isogenic RCH-ACV NSD2 p.E1099K mutant (9B) and WT cells (2C) were plated at 500 cells/well in a 1536-well plate with a 72-hour incubation with compounds prior to addition of CellTiter-Glo to assess cell viability. NCATS libraries screened include: NPC, MIPE 5.0, Kinase and NPACT. […]

[4] = biological target: Glucocorticoid receptor (Homo sapiens) (UniProt P04150); assay: qHTS assay for small molecule antagonists of glucocorticoid receptor signaling (AID 588533; active = well fitted inhibition curve with a large enough effect in the signal ratio, with a control signal flat, not every such curve was filed as active; inconclusive = small, poorly fitted or top-dose-only effect, or effect the other way, or a change in a side signal; the % refers to the signal ratio;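 also: cells stimulated with 2 nM dexamethasone as agonist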); conditions: HeLa MMTV-bla, GRE beta-lactamase ratio, antagonist mode, 18 h
[5] = biological target: Thyroid hormone receptor beta (Homo sapiens) (UniProt P10828); assay: qHTS assay for small molecule antagonists of thyroid hormone receptor beta signaling (AID 588547; active = well fitted inhibition curve with a large enough effect in the signal ratio, with a control signal flat, not every such curve was filed as active; inconclusive = small, poorly fitted or top-dose-only effect, or effect the other way, or a change in a side signal; the % refers to the signal ratio); conditions: TR-UAS-bla HEK293, beta-lactamase ratio, antagonist mode, 18 h
Method in brief: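 TR-UAS-bla GripTite HEK293 cells in 2% charcoal/dextran FBS medium; compounds 0.59 nM to 92 uM with T3 at 0.4nM final, 18 h at 37 C. Beta-lactamase read by CCF4 fluorescence (460/530 nm); Hill fits gave IC50 and efficacy.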

[6] = biological target: Muscarinic acetylcholine receptor M1 (Rattus norvegicus) (UniProt P08482); assay: qHTS Assay for Antagonists of Acetylcholine Muscarinic M1 Receptor: Kinetic Measurement of Intracellular Calcium Response (AID 943); conditions: M1-expressing cells, kinetic intracellular calcium fluorescence; also: nearly all actives have a fitted effect of over 75% in size
[7] = P-glycoprotein substrates identified in KB-8-5-11 adenocarcinoma cell line, qHTS therapeutic library screen (AID 1346987); conditions: KB-8-5-11 (P-gp overexpressing) viability, CellTiter-Glo, 72 h; also: nearly all actives have a fitted effect of over 65% in size
Method in brief: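 P-gp-mediated resistance screen: KB-8-5-11 cells treated 72 h with compounds in dose-response. CellTiter-Glo viability.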

[8] = qHTS of pediatric cancer cell lines to identify multiple opportunities for drug repurposing: Primary screen for OHS-50 cells (AID 1347103); conditions: OHS-50 osteosarcoma viability, CellTiter-Glo luminescence, 48 h; also: nearly all actives have a fitted effect of over 40% in size
Method in brief: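 Cells (500-1,000/well) rested 5 h, then received compounds for 48 h; metabolically active cells were measured by CellTiter-Glo luminescence. Final concentrations spanned up to 46 µM (MIPE, 11-point) or 0.59 nM-46 µM (NPC, 8-point) in primary screens, 11-point in follow-ups.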

[9] = Primary qHTS for small molecule stabilizers of the endoplasmic reticulum resident proteome: Secreted ER Calcium Modulated Protein (SERCaMP) assay (AID 1508630); conditions: SH-SY5Y GLuc-SERCaMP secretion, thapsigargin, luminescence
Method in brief: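 GLuc-SERCaMP-expressing SH-SY5Y cells, pretreated 16 h with compound, are challenged with thapsigargin to empty ER calcium stores; after 4 h, coelenterazine is added directly to the medium and luminescence is imaged.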

[10] = biological target: Cytochrome P450 2C9 (Homo sapiens) (UniProt P11712); assay: Cytochrome P450 family 2 subfamily C member 9 (CYP2C9) small molecule antagonists: luciferase qHTS assay (AID 1645842; active = well fitted curve in the direction sought with a large enough effect in the repeat runs; inconclusive = weak or mixed curves; inactive = no such curve, though single readings can be large; an effect the other way counts as inactive or inconclusive; also: nearly all actives have a fitted effect of over 55% in size); conditions: P450-Glo CYP2C9 enzyme assay, luciferin luminescence
Method in brief: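 Luminescence, after 20 min with luciferin detection reagent, reflected CYP2C9 turnover during a 1 h NADPH-driven reaction at 37C. Enzyme-substrate mix contained 0.4% bovine serum albumin and was preincubated with compound 10 min at room temperature.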

[11] = system: SKOV3; assay: Primary qHTS to identify gynecologic anti-cancer compounds using libraries of approved drugs and bioactive compounds (AID 1345084); conditions: Gynecologic cancer cell panel viability, ATPlite luminescence, 48 h; also: nearly all actives have a fitted effect of over 55% in size
Method in brief: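 Five-point cytotoxicity, 48 h drug exposure at 37 C, 5% CO2, on cells seeded 16 h beforehand. ATP content read by ATPlite luminescence.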

[12] = Drug repurposing screens with cells derived from glioblastoma tumor samples (AID 1345199); conditions: GBM patient neurospheres viability, ATP luminescence, 48 h; also: nearly all actives have a fitted effect of over 40% in size
Method in brief: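 Four patient lines of CD133+ GBM neurospheres were screened at several concentrations; hits were retested in those lines plus three slower-growing GBM lines, using 48-hour treatment and ATP-based viability.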

Measured: Potency
Potency is read from the fitted curve at half-maximal effect.

CN(C(=O)Cc1ccccc1)[C@H]1CC[C@@]2(CCCO2)C[C@@H]1N1CCCC1
inconclusive: [1] 33.5 µM | [2] 21.1 µM | [3] 26.6 µM

CN(N=O)C(=N)N[N+](=O)[O-]
inconclusive: [4] 50.1 µM | [5] 50.1 µM

CN(C(=O)Cc1ccccc1)[C@@H]1CC[C@@]2(CCCO2)C[C@H]1N1CCCC1
inconclusive: [6] 22.4 µM

CCC(=O)N(c1ccccc1)C1(COC)CCN(CCn2nnn(CC)c2=O)CC1
inconclusive: [7] 39.8 µM | [8] 0.878 µM | [9] 35.5 µM | [10] 49.3 µM | [11] 3.55 µM | [12]; tumour line A 39.8 µM | [12]; tumour line D 0.501 µM
